# Data as given in the supplement of paper PMC12819154, “High-throughput peptide-centric local stability assay extends protein–ligand identification to membrane proteins, tissues and bacteria” (Nature Structural & Molecular Biology, 2025).
# The chains behind the UniProt entries cited, without tags or fusion partners. Where a name states a change or a piece, a line headed by the entry shows the natural chain unless it says otherwise.
# UniProt A0JNU3: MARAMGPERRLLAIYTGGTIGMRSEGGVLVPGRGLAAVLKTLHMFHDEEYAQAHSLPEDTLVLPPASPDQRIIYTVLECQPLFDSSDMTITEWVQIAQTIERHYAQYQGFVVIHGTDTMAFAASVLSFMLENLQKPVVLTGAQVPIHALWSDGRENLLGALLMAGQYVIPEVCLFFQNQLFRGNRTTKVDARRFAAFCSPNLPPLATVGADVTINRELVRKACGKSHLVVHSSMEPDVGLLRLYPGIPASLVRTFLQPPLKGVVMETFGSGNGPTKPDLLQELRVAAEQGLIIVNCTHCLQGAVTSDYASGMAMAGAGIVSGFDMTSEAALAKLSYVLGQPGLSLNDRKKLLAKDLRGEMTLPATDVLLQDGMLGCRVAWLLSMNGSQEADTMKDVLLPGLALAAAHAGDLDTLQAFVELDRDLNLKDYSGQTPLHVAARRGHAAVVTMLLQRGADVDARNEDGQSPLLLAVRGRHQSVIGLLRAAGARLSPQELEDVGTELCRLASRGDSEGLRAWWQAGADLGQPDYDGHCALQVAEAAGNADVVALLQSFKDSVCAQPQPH
# UniProt E9QAT4: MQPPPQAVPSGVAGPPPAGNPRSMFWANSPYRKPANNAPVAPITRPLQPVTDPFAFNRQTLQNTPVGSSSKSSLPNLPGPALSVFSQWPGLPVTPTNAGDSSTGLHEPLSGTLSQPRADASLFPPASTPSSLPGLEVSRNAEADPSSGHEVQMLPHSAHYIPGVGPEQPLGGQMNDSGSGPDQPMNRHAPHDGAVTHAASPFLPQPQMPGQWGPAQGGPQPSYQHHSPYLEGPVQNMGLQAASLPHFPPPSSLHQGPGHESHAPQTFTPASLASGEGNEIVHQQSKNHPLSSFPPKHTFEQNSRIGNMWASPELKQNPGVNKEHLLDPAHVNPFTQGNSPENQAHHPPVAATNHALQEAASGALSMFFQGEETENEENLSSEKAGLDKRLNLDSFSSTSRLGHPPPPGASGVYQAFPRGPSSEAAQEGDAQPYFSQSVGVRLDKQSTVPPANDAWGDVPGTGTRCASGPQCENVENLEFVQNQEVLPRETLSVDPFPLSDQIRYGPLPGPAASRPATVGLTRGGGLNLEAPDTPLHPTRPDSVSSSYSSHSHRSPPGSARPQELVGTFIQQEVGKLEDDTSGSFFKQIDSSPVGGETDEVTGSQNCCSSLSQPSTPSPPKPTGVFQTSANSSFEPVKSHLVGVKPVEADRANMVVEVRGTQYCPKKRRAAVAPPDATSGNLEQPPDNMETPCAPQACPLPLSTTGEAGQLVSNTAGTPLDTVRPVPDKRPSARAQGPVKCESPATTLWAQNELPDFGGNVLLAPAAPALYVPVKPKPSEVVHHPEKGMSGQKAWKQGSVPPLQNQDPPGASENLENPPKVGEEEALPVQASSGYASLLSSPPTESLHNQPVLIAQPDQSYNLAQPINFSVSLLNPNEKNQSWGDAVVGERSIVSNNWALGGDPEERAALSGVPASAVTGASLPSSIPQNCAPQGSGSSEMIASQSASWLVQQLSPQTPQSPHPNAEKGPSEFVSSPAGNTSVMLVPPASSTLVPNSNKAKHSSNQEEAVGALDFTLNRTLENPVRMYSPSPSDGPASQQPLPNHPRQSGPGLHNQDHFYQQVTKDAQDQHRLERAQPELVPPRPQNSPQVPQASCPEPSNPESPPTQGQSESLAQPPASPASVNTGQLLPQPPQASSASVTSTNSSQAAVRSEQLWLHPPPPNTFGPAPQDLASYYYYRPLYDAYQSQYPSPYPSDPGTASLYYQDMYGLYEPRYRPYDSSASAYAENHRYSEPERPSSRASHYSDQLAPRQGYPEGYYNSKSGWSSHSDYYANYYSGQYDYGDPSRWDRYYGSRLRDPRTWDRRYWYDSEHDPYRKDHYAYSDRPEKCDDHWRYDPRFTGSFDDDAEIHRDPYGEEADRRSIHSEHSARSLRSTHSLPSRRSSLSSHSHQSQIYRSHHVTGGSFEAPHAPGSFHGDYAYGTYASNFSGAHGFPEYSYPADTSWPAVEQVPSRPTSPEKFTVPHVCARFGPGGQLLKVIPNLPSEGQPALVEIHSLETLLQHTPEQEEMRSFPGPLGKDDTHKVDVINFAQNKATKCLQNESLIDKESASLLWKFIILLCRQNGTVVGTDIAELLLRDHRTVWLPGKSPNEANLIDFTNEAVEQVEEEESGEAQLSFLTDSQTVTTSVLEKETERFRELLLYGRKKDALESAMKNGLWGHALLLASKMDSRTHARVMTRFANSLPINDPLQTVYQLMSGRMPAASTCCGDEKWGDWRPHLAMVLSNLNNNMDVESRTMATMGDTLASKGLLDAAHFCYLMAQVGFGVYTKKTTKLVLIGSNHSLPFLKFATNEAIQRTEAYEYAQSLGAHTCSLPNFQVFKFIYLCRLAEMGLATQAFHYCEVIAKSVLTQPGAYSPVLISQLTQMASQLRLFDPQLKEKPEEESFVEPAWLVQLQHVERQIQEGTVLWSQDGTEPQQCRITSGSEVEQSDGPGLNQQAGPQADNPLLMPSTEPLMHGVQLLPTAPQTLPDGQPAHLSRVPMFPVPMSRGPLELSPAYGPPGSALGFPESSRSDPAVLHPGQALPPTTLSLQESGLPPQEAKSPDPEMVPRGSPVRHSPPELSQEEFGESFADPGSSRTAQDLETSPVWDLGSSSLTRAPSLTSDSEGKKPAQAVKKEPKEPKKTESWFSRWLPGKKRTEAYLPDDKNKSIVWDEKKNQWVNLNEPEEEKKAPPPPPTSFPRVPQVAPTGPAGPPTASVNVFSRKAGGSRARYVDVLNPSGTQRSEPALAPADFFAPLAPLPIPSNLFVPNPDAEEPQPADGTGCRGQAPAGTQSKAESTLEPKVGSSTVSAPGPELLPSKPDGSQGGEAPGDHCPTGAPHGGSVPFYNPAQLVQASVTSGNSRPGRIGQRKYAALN
# UniProt A2ARA8: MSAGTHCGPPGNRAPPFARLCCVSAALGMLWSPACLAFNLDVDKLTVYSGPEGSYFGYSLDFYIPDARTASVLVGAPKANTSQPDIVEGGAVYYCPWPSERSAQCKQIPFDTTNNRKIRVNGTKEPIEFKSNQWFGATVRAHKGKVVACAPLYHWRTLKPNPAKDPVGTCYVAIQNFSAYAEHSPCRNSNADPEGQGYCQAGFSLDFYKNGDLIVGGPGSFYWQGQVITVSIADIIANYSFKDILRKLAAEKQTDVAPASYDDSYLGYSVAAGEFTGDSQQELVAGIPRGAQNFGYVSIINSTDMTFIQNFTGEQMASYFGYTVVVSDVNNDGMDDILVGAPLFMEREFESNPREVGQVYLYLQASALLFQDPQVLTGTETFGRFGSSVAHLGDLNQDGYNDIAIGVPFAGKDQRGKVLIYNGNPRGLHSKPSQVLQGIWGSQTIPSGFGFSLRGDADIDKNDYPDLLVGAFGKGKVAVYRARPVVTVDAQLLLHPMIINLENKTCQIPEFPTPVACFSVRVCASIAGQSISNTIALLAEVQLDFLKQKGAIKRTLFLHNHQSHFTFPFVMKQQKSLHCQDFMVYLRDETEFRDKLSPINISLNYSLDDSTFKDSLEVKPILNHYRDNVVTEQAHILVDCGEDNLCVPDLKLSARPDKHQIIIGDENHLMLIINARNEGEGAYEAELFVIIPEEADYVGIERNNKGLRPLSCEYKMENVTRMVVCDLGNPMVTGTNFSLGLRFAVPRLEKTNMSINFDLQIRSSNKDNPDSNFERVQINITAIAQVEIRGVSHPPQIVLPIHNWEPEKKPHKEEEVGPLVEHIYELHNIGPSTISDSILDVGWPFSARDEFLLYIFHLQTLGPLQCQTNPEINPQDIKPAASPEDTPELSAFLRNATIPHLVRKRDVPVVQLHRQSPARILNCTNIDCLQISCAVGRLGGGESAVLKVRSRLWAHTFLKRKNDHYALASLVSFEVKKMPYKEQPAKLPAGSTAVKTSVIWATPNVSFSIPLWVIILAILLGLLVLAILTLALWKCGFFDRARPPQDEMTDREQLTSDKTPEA
# UniProt A1L3P4: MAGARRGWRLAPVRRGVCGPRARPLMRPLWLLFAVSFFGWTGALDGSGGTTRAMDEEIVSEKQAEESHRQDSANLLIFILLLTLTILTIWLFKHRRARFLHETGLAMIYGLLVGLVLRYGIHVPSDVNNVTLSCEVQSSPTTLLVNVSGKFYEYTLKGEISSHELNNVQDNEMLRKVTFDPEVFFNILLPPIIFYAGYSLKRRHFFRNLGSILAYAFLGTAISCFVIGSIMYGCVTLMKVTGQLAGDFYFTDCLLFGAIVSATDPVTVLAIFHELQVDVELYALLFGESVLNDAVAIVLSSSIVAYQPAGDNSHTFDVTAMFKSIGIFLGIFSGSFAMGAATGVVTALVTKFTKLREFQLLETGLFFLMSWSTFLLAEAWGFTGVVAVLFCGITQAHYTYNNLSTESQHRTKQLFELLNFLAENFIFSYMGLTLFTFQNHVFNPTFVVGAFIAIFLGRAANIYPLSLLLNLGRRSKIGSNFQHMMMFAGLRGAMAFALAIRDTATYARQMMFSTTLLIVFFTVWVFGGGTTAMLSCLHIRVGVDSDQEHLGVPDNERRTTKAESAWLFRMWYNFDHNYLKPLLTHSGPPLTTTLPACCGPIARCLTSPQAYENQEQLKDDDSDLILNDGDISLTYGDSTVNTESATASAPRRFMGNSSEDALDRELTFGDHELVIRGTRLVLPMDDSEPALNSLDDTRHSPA
# UniProt E9Q912: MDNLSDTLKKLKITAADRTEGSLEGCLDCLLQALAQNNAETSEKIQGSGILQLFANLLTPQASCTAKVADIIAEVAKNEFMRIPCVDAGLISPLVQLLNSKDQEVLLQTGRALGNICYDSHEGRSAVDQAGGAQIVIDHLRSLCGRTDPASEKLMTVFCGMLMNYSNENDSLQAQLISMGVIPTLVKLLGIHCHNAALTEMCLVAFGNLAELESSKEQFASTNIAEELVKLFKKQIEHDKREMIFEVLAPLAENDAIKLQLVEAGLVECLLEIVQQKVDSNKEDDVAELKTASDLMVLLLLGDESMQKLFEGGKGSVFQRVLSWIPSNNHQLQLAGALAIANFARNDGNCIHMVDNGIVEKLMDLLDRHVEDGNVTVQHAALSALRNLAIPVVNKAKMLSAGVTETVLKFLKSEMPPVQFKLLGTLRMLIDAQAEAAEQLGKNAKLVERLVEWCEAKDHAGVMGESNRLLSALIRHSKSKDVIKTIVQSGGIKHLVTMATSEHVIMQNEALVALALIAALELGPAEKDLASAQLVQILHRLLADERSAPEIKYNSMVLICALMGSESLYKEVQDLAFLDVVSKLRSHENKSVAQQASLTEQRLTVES
# UniProt A2AR02: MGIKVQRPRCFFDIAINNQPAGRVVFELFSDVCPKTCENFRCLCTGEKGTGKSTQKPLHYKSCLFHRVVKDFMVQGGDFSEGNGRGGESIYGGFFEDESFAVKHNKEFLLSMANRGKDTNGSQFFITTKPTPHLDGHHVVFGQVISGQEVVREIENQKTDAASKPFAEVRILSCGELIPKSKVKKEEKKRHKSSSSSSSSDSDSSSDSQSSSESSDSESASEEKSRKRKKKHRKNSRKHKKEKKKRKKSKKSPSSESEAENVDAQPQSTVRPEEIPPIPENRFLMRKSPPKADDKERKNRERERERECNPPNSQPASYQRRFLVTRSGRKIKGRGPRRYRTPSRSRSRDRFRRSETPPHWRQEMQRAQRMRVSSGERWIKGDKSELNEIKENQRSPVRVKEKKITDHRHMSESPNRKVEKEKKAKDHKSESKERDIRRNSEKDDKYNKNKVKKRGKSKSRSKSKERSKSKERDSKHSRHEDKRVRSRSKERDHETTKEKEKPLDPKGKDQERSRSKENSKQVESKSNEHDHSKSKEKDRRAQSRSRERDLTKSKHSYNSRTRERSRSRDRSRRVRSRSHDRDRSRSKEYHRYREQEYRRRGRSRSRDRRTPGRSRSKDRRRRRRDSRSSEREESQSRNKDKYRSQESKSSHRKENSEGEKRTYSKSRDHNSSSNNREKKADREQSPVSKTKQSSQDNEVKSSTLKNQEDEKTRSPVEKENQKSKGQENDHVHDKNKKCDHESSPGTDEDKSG
# UniProt A2ADY9: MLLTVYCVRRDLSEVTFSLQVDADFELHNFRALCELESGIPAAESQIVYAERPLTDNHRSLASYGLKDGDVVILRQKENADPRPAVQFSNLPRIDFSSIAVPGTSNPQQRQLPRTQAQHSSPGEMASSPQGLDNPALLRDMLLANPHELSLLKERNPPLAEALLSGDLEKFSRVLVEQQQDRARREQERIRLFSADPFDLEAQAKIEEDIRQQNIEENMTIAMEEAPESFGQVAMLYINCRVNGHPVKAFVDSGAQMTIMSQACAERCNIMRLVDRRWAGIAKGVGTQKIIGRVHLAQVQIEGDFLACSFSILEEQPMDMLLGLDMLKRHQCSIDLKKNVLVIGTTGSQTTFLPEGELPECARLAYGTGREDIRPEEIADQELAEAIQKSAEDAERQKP
# UniProt B1AR13: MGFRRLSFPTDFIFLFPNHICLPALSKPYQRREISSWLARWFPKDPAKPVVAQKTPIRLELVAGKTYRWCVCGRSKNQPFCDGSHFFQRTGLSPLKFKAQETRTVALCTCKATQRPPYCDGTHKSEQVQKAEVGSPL
# The list shows a part of the results. Most entries show no effect beyond the scatter of the controls.
# Compound: CN[C@@H]1C[C@H]2O[C@@](C)([C@@H]1OC)n1c3ccccc3c3c4c(c5c6ccccc6n2c5c31)C(=O)NC4 [staurosporine]
# Test: log2 fold change of pooled soluble protein (PISA), ligand vs vehicle (log2 ratio); higher = more thermally stabilized
# Details: ligand concentration: 20 uM; assay format: PISA pool 52.9/55.5/58.6 C
row,Target,log2 fold change of pooled soluble protein
1,UniProt A0JNU3,0.0341
2,UniProt E9QAT4,-0.134
3,UniProt A2ARA8,-0.03
4,UniProt A1L3P4,-0.171
5,UniProt B8JK39,0.00873
6,UniProt B1AZA5,-0.0278
7,UniProt E9Q4N7,0.0448
8,UniProt D3Z4S3,0.216
9,UniProt E9Q309,-0.543
10,UniProt A2BH40,-0.194
11,UniProt A2ASS6,0.0402
12,UniProt E9Q912,-0.109
13,UniProt B2RX12,-0.0225
14,UniProt E9Q394,-0.0685
15,UniProt A2RTL5,-0.38
16,UniProt A6X8Z5,-0.107
17,UniProt B9EKI3,-0.0114

row,Target,log2 fold change of pooled soluble protein
1,UniProt B7ZCC9,0.0151
2,UniProt A2AEP0,0.0856
3,UniProt A2AR02,-0.429
4,UniProt A2RSJ4,0.0491
5,UniProt E9Q5F9,0.228
6,UniProt D3YXK2,0.00766
7,UniProt A2AKQ0,-0.122
8,UniProt E9PYK3,0.101
9,UniProt A2ADY9,-0.0193
10,UniProt B2RVL6,0.115
11,C0HKG5;C0HKG6,0.0439
12,UniProt B1AR13,-0.0698
13,UniProt E9Q4P1,-0.0178
14,UniProt E9Q555,-0.106
15,UniProt E9Q137,0.0908
16,UniProt A3KMN5,-0.0312

# An excerpt of these results, as tab-separated lines.
row	Target	log2 fold change of pooled soluble protein
14	UniProt E9Q555	-0.106
15	UniProt E9Q137	0.0908
